# According to the supplement of paper PMC8007513:
# This is one part of the list. Many values rest on one well or one pass, so single values are uncertain.
# System: Saccharomyces cerevisiae BY4743
# Assay: growth (OD600) with compound + IPBC relative to untreated control; higher = less growth inhibition
# Settings: compound concentration: 133 uM; IPBC concentration: 0.5 ug/ml; 20 h
# Protocol: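 NMCCC compounds (133 uM) combined with IPBC (0.5 ug/ml) against Saccharomyces cerevisiae BY4743 in YPD, 96-well plates. Growth was read as OD600 at 20 h and expressed as % of the untreated control. Single pass.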
row,SMILES,growth [%]
1,CC1=C(C(=O)OCC(C)C)C(/C=C/c2ccccc2)N2C(=O)CCSC2=N1 (centres undefined) + CCCCNC(=O)OCC#CI [3-iodo-2-propynyl butylcarbamate (IPBC)],94.6
2,CCCc1n[nH]c(SCC(=O)NC(C)c2ccc3c(c2)OCCO3)n1 (centres undefined) + CCCCNC(=O)OCC#CI [3-iodo-2-propynyl butylcarbamate (IPBC)],101
3,CSc1nnc(-c2cccnc2)n1CCO + CCCCNC(=O)OCC#CI [3-iodo-2-propynyl butylcarbamate (IPBC)],83
4,COC(=O)c1cc(S(=O)(=O)N2CCN(C3CCCCC3)CC2)c[nH]1 + CCCCNC(=O)OCC#CI [3-iodo-2-propynyl butylcarbamate (IPBC)],100
5,COc1ccc(CNC(=O)c2ccc(NS(=O)(=O)c3ccc(C(C)O)cc3)cc2)cc1OC (centres undefined) + CCCCNC(=O)OCC#CI [3-iodo-2-propynyl butylcarbamate (IPBC)],107
6,OC1(C\C(=N/N1C(=O)C2CC2)C3=CC=CC=C3)C(F)(F)F (centres undefined) + CCCCNC(=O)OCC#CI [3-iodo-2-propynyl butylcarbamate (IPBC)],101
7,CCN(CC)[S](=O)(=O)C1=CC=C(NC(=O)N\C2=C\N(C)C(=O)C3=CC=CC=C23)C=C1 + CCCCNC(=O)OCC#CI [3-iodo-2-propynyl butylcarbamate (IPBC)],106
8,CCCNC(=O)c1cc(N(C)S(=O)(=O)c2ccc(C)cc2)ccn1 + CCCCNC(=O)OCC#CI [3-iodo-2-propynyl butylcarbamate (IPBC)],108
9,CC(Sc1n[nH]c(-c2ccc(Cl)cc2)n1)C(=O)NC1CCCCC1 (centres undefined) + CCCCNC(=O)OCC#CI [3-iodo-2-propynyl butylcarbamate (IPBC)],79.1
10,COc1ccc(CCNC(=O)c2ccc(Cn3cc(Cl)cn3)cc2)cc1 + CCCCNC(=O)OCC#CI [3-iodo-2-propynyl butylcarbamate (IPBC)],85.3
11,CCN1CCN(S(=O)(=O)c2ccc3c(c2)NC(=O)C(C)CS3)CC1 (centres undefined) + CCCCNC(=O)OCC#CI [3-iodo-2-propynyl butylcarbamate (IPBC)],101
12,COc1ccc(S(=O)(=O)Nc2ccccc2Cl)cc1NS(=O)(=O)N1CCCCCC1 + CCCCNC(=O)OCC#CI [3-iodo-2-propynyl butylcarbamate (IPBC)],101
13,Cc1oc(-c2cccs2)nc1COC(=O)c1csc(S(N)(=O)=O)c1 + CCCCNC(=O)OCC#CI [3-iodo-2-propynyl butylcarbamate (IPBC)],109
14,CCOC(=O)\C1=C(/COC(=O)C2=CC=CC=C2C(=O)C3=CC=CS3)NC(=O)NC1 + CCCCNC(=O)OCC#CI [3-iodo-2-propynyl butylcarbamate (IPBC)],103
15,CC(Sc1ncnc2sccc12)C(=O)Nc1cccc(C#N)c1 (centres undefined) + CCCCNC(=O)OCC#CI [3-iodo-2-propynyl butylcarbamate (IPBC)],105
16,O=C(COC(=O)C1CCN(C(=O)Nc2ccccc2)CC1)c1ccc(Cl)s1 + CCCCNC(=O)OCC#CI [3-iodo-2-propynyl butylcarbamate (IPBC)],94.5
17,Cc1ccc(CN2C(=O)c3ccccc3C2O)o1 (centres undefined) + CCCCNC(=O)OCC#CI [3-iodo-2-propynyl butylcarbamate (IPBC)],116
18,CCC(C)[C@H](N)c1nnc(SCc2ccc(Cl)c(Cl)c2)o1 (some centres undefined) + CCCCNC(=O)OCC#CI [3-iodo-2-propynyl butylcarbamate (IPBC)],49.4
19,CC1CCCCC1NC(=O)c1cc(S(=O)(=O)N2CCCC2)cn1C (centres undefined) + CCCCNC(=O)OCC#CI [3-iodo-2-propynyl butylcarbamate (IPBC)],91.6
20,O=C(COC(=O)c1ncc(Cl)c(Cl)c1Cl)NC(=O)c1ccccc1 + CCCCNC(=O)OCC#CI [3-iodo-2-propynyl butylcarbamate (IPBC)],99.6

row,SMILES,growth [%]
1,COc1nc(NS(=O)(=O)c2ccc(C)cc2)nc(C)c1Cl + CCCCNC(=O)OCC#CI [3-iodo-2-propynyl butylcarbamate (IPBC)],90.1
2,Cc1cccc(C)c1N1C(=O)N(CC(=O)NC(C)C)c2ccccc2S1(=O)=O + CCCCNC(=O)OCC#CI [3-iodo-2-propynyl butylcarbamate (IPBC)],98.1
3,COc1ccc(N(C)C(=O)CN(C)S(=O)(=O)c2ccc3c(c2)c(=O)n(C)c(=O)n3C)c(OC)c1 + CCCCNC(=O)OCC#CI [3-iodo-2-propynyl butylcarbamate (IPBC)],72.5
4,Cc1nn(C)c(C)c1NS(=O)(=O)c1cccc(C#N)c1 + CCCCNC(=O)OCC#CI [3-iodo-2-propynyl butylcarbamate (IPBC)],99.9
5,COc1cc(OC)c(NS(=O)(=O)c2ccc3c(c2)CCCC(=O)N3)cc1Cl + CCCCNC(=O)OCC#CI [3-iodo-2-propynyl butylcarbamate (IPBC)],106
6,CCN(Cc1ccncc1)Cn1c(=O)oc2ccccc21 + CCCCNC(=O)OCC#CI [3-iodo-2-propynyl butylcarbamate (IPBC)],91.9
7,Cc1[nH]c(C(=O)NCC(Nc2ccccc2)C(C)C)c(C)c1C(=O)OC(C)C (centres undefined) + CCCCNC(=O)OCC#CI [3-iodo-2-propynyl butylcarbamate (IPBC)],79
8,N#Cc1c(O)nc(SCc2cccc(C(=O)O)c2)nc1-c1ccco1 + CCCCNC(=O)OCC#CI [3-iodo-2-propynyl butylcarbamate (IPBC)],89.2
9,COc1ccc(NC(=O)c2ccnc(N3CCC(C)CC3)c2)cc1 + CCCCNC(=O)OCC#CI [3-iodo-2-propynyl butylcarbamate (IPBC)],77.6
10,CCCCN1\N=C(/C=C\C1=O)C(=O)NC2=CC=C(C=C2)[S](=O)(=O)N(C)CC3=CC=CC=C3 + CCCCNC(=O)OCC#CI [3-iodo-2-propynyl butylcarbamate (IPBC)],83.5
11,CC1CCN(C(=O)c2csc(S(=O)(=O)N(C)C3CCCCC3)c2)CC1 + CCCCNC(=O)OCC#CI [3-iodo-2-propynyl butylcarbamate (IPBC)],98.7
12,COC(=O)CCc1nc(-c2nonc2N)no1 + CCCCNC(=O)OCC#CI [3-iodo-2-propynyl butylcarbamate (IPBC)],109
13,COCc1c(C(=O)Nc2nc[nH]n2)sc2cccc(F)c12 + CCCCNC(=O)OCC#CI [3-iodo-2-propynyl butylcarbamate (IPBC)],99.3
14,Cc1nn(C)c(C)c1CCC(=O)NCc1nnc2ccc(C(F)(F)F)cn12 + CCCCNC(=O)OCC#CI [3-iodo-2-propynyl butylcarbamate (IPBC)],108
15,COCCN(CC(=O)Nc1cccc(C)c1C)C(=O)CCc1c[nH]c2ccccc12 + CCCCNC(=O)OCC#CI [3-iodo-2-propynyl butylcarbamate (IPBC)],115
16,O=C(COC(=O)c1[nH]nc2ccccc12)NC(=O)NC1CCCCC1 + CCCCNC(=O)OCC#CI [3-iodo-2-propynyl butylcarbamate (IPBC)],105
17,CCOc1ccccc1NC(=O)C(Sc1nc(N)cc(O)n1)c1ccccc1 (centres undefined) + CCCCNC(=O)OCC#CI [3-iodo-2-propynyl butylcarbamate (IPBC)],110
18,CCCN(Cc1cccs1)C(=O)Nc1cc(Cl)ccc1OC + CCCCNC(=O)OCC#CI [3-iodo-2-propynyl butylcarbamate (IPBC)],74.7
19,CCC1=CC=C(Cl)C(=C1NC(=O)C/2=N/N(C)C(=O)/C=C2)CC + CCCCNC(=O)OCC#CI [3-iodo-2-propynyl butylcarbamate (IPBC)],99.2

# Two entries drawn at random from the list so far, as already listed:
row,SMILES,growth [%]
14,Cc1nn(C)c(C)c1CCC(=O)NCc1nnc2ccc(C(F)(F)F)cn12 + CCCCNC(=O)OCC#CI [3-iodo-2-propynyl butylcarbamate (IPBC)],108
4,COC(=O)c1cc(S(=O)(=O)N2CCN(C3CCCCC3)CC2)c[nH]1 + CCCCNC(=O)OCC#CI [3-iodo-2-propynyl butylcarbamate (IPBC)],100
